Measured values reported in EP2246329A1, “4(1H)-pyridinone derivatives and their use as antimalaria agents” (Glaxo Group Limited, priority 2009, dated 2010).
Counter-ions that a name gives are not always drawn. Like-named read-outs stand apart in the source and are kept apart here. Some results were stated once for a whole list of compounds, not compound by compound.

Test system: Plasmodium falciparum
Assay: In vitro anti-malarial activity against Plasmodium falciparum, IC50 assay / [3H]-Hypoxanthine incorporation assay
Type: cell-based
Settings: for stability in the assay conditions: conditions of the in vitro [3H]-hypoxanthine IC50 assay
Protocol: The compounds of this invention may be tested in one of several biological assays to determine the concentration of compound which is required to have a given pharmacological effect. In vitro anti-malarial activity against Plasmodium falciparum. IC50 assay / [^3H]-Hypoxanthine assay
The culture medium comprised RPMI 1640 with 25mM HEPES, sodium bicarbonate and glutamine (GIBCO™ cat. ref.: 52400), supplemented with 10% of pooled human sera AB (Irvine Scientific, cat. ref.: 5009) and HT supplement (0.15 mM hypoxanthine and 24 µM thymidine), (GIBCO™ cat. ref.: 41065). Human sera were decomplemented 30 min. at 56°C, aliquoted and stored frozen at -20°C until use in this culture medium.
This culture medium ("complete medium") was usually prepared fresh just before use and pre-warmed to 37°C.
Red blood cells O+ stock suspensions were prepared from whole blood bags coming from incomplete blood donation, provided by the Spanish Red Cross (<25 days after sampling). This "whole blood" was aliquoted and stored at 4°C.
To prepare red blood cells for the assay, the whole blood was centrifuged and washed 3 times with RPMI without serum. The upper phase, containing white blood cells was removed. The washed red blood cells were kept as a 50 % suspension in complete medium. The prepared cells were stored at 4°C and were employed in the assay at any time up to 4 days after preparation.
Test compounds were dissolved at 2 mg/ml in 100% DMSO on the day of the assay. If necessary, complete dissolution was achieved by gentle heating (the mixture was heated at a temperature <37°C) and sonication (sonication bath).
For IC50 determinations, 10 serial 2-fold dilutions were prepared in complete medium in the presence of a constant amount of DMSO. Any obvious signs of insolubility of the stock solutions in 100% DMSO or precipitation when these solutions were diluted in assay media, were recorded.
Plasmodium falciparum strains were maintained in complete medium at an hematocrit of 5% in continuous culture using a method adapted from that published by Trager and Jensen(1) and Traeger(2).
The parasitemia was calculated by counting the percentage of parasitized erythrocytes by optical microscopy. Thin films of blood were made every day from each culture flask, fixed with methanol and stained for 10 min. in Giemsa (Merck, cat. ref.: 1.09204) at 10 % in buffered water pH 7.2. The glass slides were observed and counted with an optical microscope (Nikon, Eclipse E200) equipped with a 100 X immersion oil objective.
The culture was maintained at an hematocrit of 5%, with a daily change of medium and was diluted when parasitemia had reached about 5%.
[^3H] Hypoxanthine incorporation assay was conducted using a method adapted from Desjardins et al. (3). The assays were performed in 96 wells flat bottom microplates. • 1. Serial dilutions of the test compounds (50µl of a 5X solution / well) were deposited in duplicate. Compounds of the invention were tested in this assay. Chloroquine and Atovaquone were used as control compounds for each assay. • 2. […] [^3H]-Hypoxanthine (Amersham Biosciences, cat. ref.: TRK74) was added extemporaneously to the inoculum suspension at a concentration of 1 µCi/ml (equating to […]). 200 µl of the resulting suspension was distributed into each well (other than the control well H12 described below) leading to a final volume of 250 µl per well, at 2% of hematocrit and 0.5 % of parasitemia / well. • 4. […]

Row | Compound | IC50 value | stability in the assay conditions | other results
1 | 3-Chloro-2,6-dimethyl-5-(4'-{[methyl({4-[(trifluoromethyl)oxy] phenyl}methyl)amino ]methyl}-4-biphenylyl)-4(1H)-pyridinone trifluoroacetate [Example 36] |  |  | IC50 value (Plasmodium falciparum strains in parasitized red blood cells, [3H]-hypoxanthine incorporation, 48 hours at 37°C): less than 125 ng/ml
2 | 3-Chloro-2,6-dimethyl-5-(4-{3-[(2-methyl)({4-[(trifluoromethyl)oxy]phenyl}methyl)amino]-1-propyn-1-yl}phenyl)-4(1H)-pyridinone hydrochloride [Example 37] | less than 125 ng/ml |  | 
3 | 3-Chloro-2,6-dimethyl-5-[4-(3-{methyl[(5-methyl-2-thienyl)methyl]amino}-1-propyn-1-yl)phenyl]-4(1H)-pyridinone hydrochloride [Example 39] | less than 125 ng/ml |  | 
4 | 3-chloro-5-(4'-{[4-(1,1-dimethylethyl)-1-piperidinyl]meth yl}-4-biphenylyl)-2,6-dimethyl-4(1H)-pyridinone hydrochloride [Example 59] | less than 125 ng/ml |  | 
5 | 3-chloro-5-{4'-[(4-fluoro-1-piperidinyl)meth yl]-4-biphenylyl}-2,6-dimethyl-4(1H)-pyridinone hydrochloride [Example 58] | less than 125 ng/ml |  | 
6 | 5-chloro-2,6-dimethyl-6'-(4-{[4-(trifluoromethyl)-1-piperidinyl]methyl}phenyl)-3,3'-bipyridin-4(1H)-one [Example 65] | less than 125 ng/ml |  | 
7 | 5-chloro-6'-{4-[(4,4-difluoro-1-piperidinyl)methyl]phenyl}-2,6-dimethyl-3,3'-bipyridin-4(1H)-one [Example 66] | less than 125 ng/ml |  | 
8 | CNCCN(C)C(=O)Oc1c(Cl)c(C)nc(C)c1-c1ccc(C#CCN(C)Cc2ccc(OC(F)(F)F)cc2)cc1 [Example 53, 3-Chloro-2,6-dimethyl-5-(4-{3-[methyl({4-[(trifluoromethyl)oxy]phenyl}methyl)amino]-1-propyn-1-yl}phenyl)-4-pyridinyl methyl[2-(methylamino)ethyl]carbamatehydrochloride] |  | not stable in the assay conditions | 
9 | Cc1nc(C)c(-c2ccc(-c3ccc(CN4CCC(c5ccc(OC(F)(F)F)cc5)CC4)cc3)cc2)c(OC(=O)N(C)CCNC(=O)OC(C)(C)C)c1Cl [Example 54, 3-Chloro-2,6-dimethyl-5-{4'-[(4-{4-[(trifluoromethyl)oxy]phenyl}-1-piperidinyl)methyl]-4-biphenylyl}-4-pyridinyl [2-({[(1,1-dimethylethyl)oxy]carbonyl}amino)ethyl]methylcarbamate] |  | not stable in the assay conditions | 
10 | CNCCN(C)C(=O)Oc1c(Cl)c(C)nc(C)c1-c1ccc(-c2ccc(CN3CCC(c4ccc(OC(F)(F)F)cc4)CC3)cc2)cc1 [Example 55, 3-Chloro-2,6-dimethyl-5-{4'-[(4-{4-[(trifluoromethyl)oxy]phenyl}-1-piperidinyl)methyl]-4-biphenylyl}-4-pyridinyl methyl[2-(methylamino)ethyl]carbamate] |  | not stable in the assay conditions | 
